# Laboratory results reported in PubChem BioAssay AID1487 (National Center for Advancing Translational Sciences (NCATS), 2009).
# Some of the results follow. Further columns of the screen follow, without active or inactive calls. Most of these compounds were active or inconclusive in the main read-out, so they are no random draw. Words in brackets tell the shape of the fitted curve; partial curves, single points and poor fits give uncertain potencies.
# Assay: qHTS Assay for Modulators of Lamin A Splicing
# Settings: HeLa LMNA splicing GFP/RFP minigene ratio, 48 h
# Method in brief: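 S3 HeLa stable clones carrying a lamin A-EGFP splicing minigene plus DsRed2 were seeded at 600 cells/well in Opti-MEM with 2% FBS, pin-dosed and incubated 48 h at 37°C. Acumen cytometry (488 nm) gave the GFP/RFP total-intensity ratio.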
# [1] = measured here: RFP viability control channel
# [2] = measured here: GFP splicing reporter channel
Structure (SMILES),AC50 [1],AC50 [2]
COc1cccc(/C=C/C(=O)OCC(=O)c2c[nH]c3ccccc23)c1OC,"0.01 µM [rising, full curve, poor fit]",–
c1ccc2sc(N3CCN(Cc4nnnn4CC4CCCO4)CC3)nc2c1 (stereo not given),"15.8 µM [rising, single point]","11.2 µM [rising, partial curve]"
O=[N+]([O-])c1ccc(Cl)c(C2Nc3cccc4cccc(c34)N2)c1,–,"35.5 µM [falling, single point]"
CCOc1ccccc1CNC(=O)C1CCN(C(=O)c2sccc2-n2cccc2)CC1,"15.8 µM [rising, single point]","14.1 µM [rising, single point]"
O=C(/C=C/c1ccccc1)c1ccc2c(c1)OCCCCO2,"12.6 µM [falling, partial curve]","12.6 µM [falling, partial curve]"
O=C(Nc1ncc(Cc2ccccc2Cl)s1)C1=NCCN1,"22.4 µM [rising, single point]",–
O=C(CSc1nc2ccccc2o1)Nc1ccc(N2CCOCC2)c(Cl)c1,"17.8 µM [rising, single point]","11.2 µM [rising, single point]"
CCCCN(C)C(=O)c1cc2cc3ccc(OC)cc3nc2s1,"31.6 µM [rising, single point]",–
Cc1cc(SCC(=O)Nc2cccnc2Cl)nc2ccccc12,"0.158 µM [rising, full curve, poor fit]","0.251 µM [rising, full curve]"
CCN(CC)c1ccc(NS(=O)(=O)c2ccc(-c3coc(C)n3)cc2)c(C)c1,"0.126 µM [falling, partial curve, poor fit]","0.2 µM [falling, full curve, poor fit]"
CC(C)Oc1ccc(Br)cc1/C=N\NC(N)=S,"15.8 µM [rising, partial curve]","14.1 µM [rising, partial curve]"
O=C(NCc1ccc2c(c1)CCN2C(=O)c1ccc(Cl)cc1)c1ccco1,"15.8 µM [falling, single point]",–
CCN1CCN(CCNC(=O)c2ccc(/C=C3/Sc4ccccc4N(Cc4ccccc4C)C3=O)cc2)CC1,"25.1 µM [falling, partial curve, poor fit]",–
Cc1ccccc1Cn1nc(C)c(NC(=O)c2cc(-c3cccs3)on2)c1C,"22.4 µM [rising, single point]","15.8 µM [rising, single point]"
COc1cccc(/C=N/NC(=O)c2ccccc2)c1OS(=O)(=O)c1ccccc1,"2.82 µM [rising, partial curve]","5.01 µM [rising, partial curve]"
CC(=O)N1CCc2c(sc3c2c(=O)n(-c2cccc(Cl)c2)c(=O)n3Cc2ccc(F)cc2Cl)C1,"0.178 µM [falling, full curve, poor fit]","0.01 µM [falling, full curve, poor fit]"
CCC(C)c1ccc(NC(=S)Nc2ccc(OC)c(OC)c2)cc1 (stereo not given),"35.5 µM [rising, single point]",–

# 3 entries out of the list, ordered by length of the SMILES, high to low.
Structure (SMILES),AC50 [1],AC50 [2]
CCN(CC)c1ccc(NS(=O)(=O)c2ccc(-c3coc(C)n3)cc2)c(C)c1,"0.126 µM [falling, partial curve, poor fit]","0.2 µM [falling, full curve, poor fit]"
COc1cccc(/C=C/C(=O)OCC(=O)c2c[nH]c3ccccc23)c1OC,"0.01 µM [rising, full curve, poor fit]",–
CC(C)Oc1ccc(Br)cc1/C=N\NC(N)=S,"15.8 µM [rising, partial curve]","14.1 µM [rising, partial curve]"

# (more compounds)

Structure (SMILES),AC50 [1],AC50 [2]
CCOC(=O)c1noc2nc(C)n(CC(=O)Nc3ccc(OC)c(Cl)c3)c(=O)c12,–,"0.00398 µM [rising, full curve, poor fit]"
Cc1ccc(C(=O)N/C(=C\c2ccc(-c3ccc(Br)cc3)o2)C(=O)NC2CCS(=O)(=O)C2)cc1 (stereo not given),"25.1 µM [falling, single point]","22.4 µM [falling, single point]"
O=C(Nc1cc(S(=O)(=O)N2CCCCC2)ccc1Cl)c1ccccc1NS(=O)(=O)c1ccc(F)cc1,–,"3.55 µM [rising, single point]"
Cc1cccc(C(=O)N2CCC(=O)N(C(COCc3cccc(C(F)(F)F)c3)Cc3ccccc3)CC2)c1 (stereo not given),"35.5 µM [rising, partial curve, poor fit]","35.5 µM [rising, partial curve, poor fit]"
C=CCn1c(=N)n(CC(O)COc2ccc(OC)cc2)c2ccccc21 (stereo not given),"22.4 µM [rising, partial curve, poor fit]","20 µM [rising, partial curve]"
O=C(Nc1ccc(N2CCOCC2)cc1)c1cc2ccccc2o1,"35.5 µM [rising, single point]",–
Oc1cc2ccccc2cc1-c1n[nH]c(=S)o1,"14.1 µM [rising, single point]",–
CC1=Nc2ccc(C)cc2/C1=C/c1c(N)n2oc(C)cc2nc1=O,–,"3.16 µM [rising, full curve, poor fit]"
O=C1c2ccccc2C(=O)c2c(Nc3ccc(CCO)cc3)ccc(O)c21,"11.2 µM [falling, partial curve]","10 µM [falling, partial curve, poor fit]"
O=S(=O)(c1ccccc1)n1nc(-c2ccccc2)nc1NCc1ccco1,"20 µM [rising, single point]","14.1 µM [rising, single point]"
COc1ccc(CCC(=O)OC(C)C(=O)c2ccc(C)cc2)cc1 (stereo not given),"0.178 µM [rising, full curve]",–
C=C(CCC(=O)c1ccccc1)C(=O)c1ccccc1,"35.5 µM [falling, single point]","35.5 µM [falling, single point]"
N#CC(c1ccc(F)cc1)c1ccc(C(=O)c2ccc(F)cc2)cc1 (stereo not given),"12.6 µM [rising, single point]",–
CCN(CCN(C)C)C(=O)C1CCN(S(=O)(=O)c2c(C)noc2/C=C/c2ccccc2F)CC1,"17.8 µM [rising, single point]",–
CCn1c(CNc2cccc(Cl)c2)nnc1SCc1ccccc1,"14.1 µM [rising, partial curve]",–
CCN1/C(=C/c2ccc3cc(C)ccc3[n+]2CC)Sc2cc(C)ccc21,"2.82 µM [rising, full curve]","3.98 µM [rising, partial curve]"
